Source: paper PMC7052886
Results are given in words; binding and its absence hold for the method and conditions named. In cells and extracts the contact can be indirect. Some results given as binding are weak or reduced against the parent protein; the word gives no strength. For some assays here: Sequences can lack the tags named with a protein.

Protein sequences, listed by entry. Tags and fused reporters are not part of them.
UniProt Q9NQU5: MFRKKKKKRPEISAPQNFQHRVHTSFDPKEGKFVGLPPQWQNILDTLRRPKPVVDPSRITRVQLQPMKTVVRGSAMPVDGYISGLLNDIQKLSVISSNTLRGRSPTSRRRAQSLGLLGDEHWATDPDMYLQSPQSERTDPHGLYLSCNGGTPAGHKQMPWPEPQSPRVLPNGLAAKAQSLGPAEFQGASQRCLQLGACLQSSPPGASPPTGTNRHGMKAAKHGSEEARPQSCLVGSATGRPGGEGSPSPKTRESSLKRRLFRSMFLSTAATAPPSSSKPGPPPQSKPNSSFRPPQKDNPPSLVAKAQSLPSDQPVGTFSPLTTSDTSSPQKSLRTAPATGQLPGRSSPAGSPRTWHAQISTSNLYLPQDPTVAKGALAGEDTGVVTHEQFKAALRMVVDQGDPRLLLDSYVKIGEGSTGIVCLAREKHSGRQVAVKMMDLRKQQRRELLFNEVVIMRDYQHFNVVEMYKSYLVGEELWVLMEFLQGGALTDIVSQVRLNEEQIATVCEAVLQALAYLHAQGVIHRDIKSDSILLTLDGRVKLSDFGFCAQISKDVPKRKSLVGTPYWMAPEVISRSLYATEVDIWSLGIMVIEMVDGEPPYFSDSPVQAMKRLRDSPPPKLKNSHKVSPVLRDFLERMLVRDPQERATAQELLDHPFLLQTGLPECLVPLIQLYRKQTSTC

T1: endogenous SIRT4 (human (endogenous in CWR22RV1)) (UniProt Q9Y6E7)
T1 sequence: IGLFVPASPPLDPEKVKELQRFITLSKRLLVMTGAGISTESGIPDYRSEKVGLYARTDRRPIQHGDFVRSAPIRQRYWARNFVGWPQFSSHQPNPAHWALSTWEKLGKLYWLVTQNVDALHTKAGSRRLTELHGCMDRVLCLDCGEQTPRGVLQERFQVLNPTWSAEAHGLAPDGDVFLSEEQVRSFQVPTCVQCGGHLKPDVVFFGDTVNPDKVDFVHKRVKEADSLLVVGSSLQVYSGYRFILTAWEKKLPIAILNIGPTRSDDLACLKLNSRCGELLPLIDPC

B1: Flag-tagged SIRT4 (protein, UniProt Q9Y6E7 29-314)
chain: T1 sequence

Tests used:
[1] = target: T1, endogenous SIRT4 (human (endogenous in CWR22RV1)); test: co-IP; endogenous proteins in CWR22RV1 cells; 2 mg lysate, indicated antibody and protein A-Sepharose overnight at 4°C; western blot
[2] = target: GFP-PAK6 (p21-activated kinase 6, wild type) (UniProt Q9NQU5); test: co-IP; HEK293 cells transiently co-transfected with the tagged constructs; 2 mg lysate, indicated antibody and protein A-Sepharose overnight at 4°C; western blot

| Molecule | binding [1] | binding [2] |
| --- | --- | --- |
| endogenous PAK6 (p21-activated kinase 6) (from UniProt Q9NQU5 1-681) | binds | – |
| B1 | – | binds |
